Results published in patent US20180016352A1 (published 2018).
These are yes or no findings as the source states them, for the method shown. Some binding calls cover weakened binding; strength is not graded here.

Sequences of proteins named here, by UniProt entry; tags and fusion partners are left off. Residues count along the entry.
UniProt P35968, residues 20-764: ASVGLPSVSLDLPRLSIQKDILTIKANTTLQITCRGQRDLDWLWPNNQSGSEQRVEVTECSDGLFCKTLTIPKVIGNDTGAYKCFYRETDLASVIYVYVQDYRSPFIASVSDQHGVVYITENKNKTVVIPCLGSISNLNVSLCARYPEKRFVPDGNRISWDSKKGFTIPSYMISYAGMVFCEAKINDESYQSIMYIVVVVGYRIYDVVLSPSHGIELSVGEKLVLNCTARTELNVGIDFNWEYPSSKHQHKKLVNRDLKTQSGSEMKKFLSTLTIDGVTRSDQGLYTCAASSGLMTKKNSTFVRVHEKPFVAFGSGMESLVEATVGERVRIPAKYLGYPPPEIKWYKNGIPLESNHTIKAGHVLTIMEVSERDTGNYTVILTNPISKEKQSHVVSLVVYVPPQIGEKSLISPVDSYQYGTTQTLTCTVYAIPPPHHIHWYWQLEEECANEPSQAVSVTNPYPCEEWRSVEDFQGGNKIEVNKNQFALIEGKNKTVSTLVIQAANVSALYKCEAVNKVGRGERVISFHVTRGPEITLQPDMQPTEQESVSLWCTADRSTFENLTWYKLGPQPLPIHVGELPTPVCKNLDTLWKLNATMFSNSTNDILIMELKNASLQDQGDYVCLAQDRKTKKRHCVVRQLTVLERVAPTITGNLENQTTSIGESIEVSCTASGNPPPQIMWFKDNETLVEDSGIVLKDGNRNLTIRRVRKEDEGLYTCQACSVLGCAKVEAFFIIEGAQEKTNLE

Biological target: recombinant VEGFR2 receptor (UniProt P35968)
Test: indirect ELISA, recombinant receptor coated, anti-c-myc HRP

B1: VEGF-15.2 (BsAb targeting VEGFR2) (other)
chain: HHHHHHEVVKFMDVYQRSYCHPIETLVDIFQEYPDEIEYIFKPSCVPLMRCGGCCNDEGLECVPTEESNITMQIMRIKPHQGQHIGEMSFLQHNKCECRPKKDGSTSGSGKSSEGKGEVVKFMDVYQRSYCHPIETLVDIFQEYPDEIEYIFKPSCVPLMRCGGCCNDEGLECVPTEESNITMQIMRIKPHQGQHIGEMSFLQHNKCECRPKKDSGGGGSEVKLEESGGGLVQPGGSMKLSCVASGFTFSNYWMNWVRQSPEKGLEWVTEIRSKSNNYATHYAESVKGRFTISRDDSKGSVYLQMNNLRAEDTGIYYCSNRYYWGQGTLVTVSAGGGGSGGGGSGGGGSDIVMTQSHKFMSTSVRDRVTITCKASQDVNTSVAWYQQKPGQSPKLVIYWASTRHTGVPDRFTGSGSGTDFTLTISNVQSEDLADYFCLQYINYPYTFGGGTKLEIKEQKLISEEDLN
binding: binds
